Assay [1] in a line: qHTS assay for small molecule antagonists of androgen receptor signaling (AID 588516). The note with it: AR-UAS-bla HEK293, beta-lactamase ratio, antagonist mode, 16 h. The gist of the method: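 Antagonist-mode qHTS: inhibition of R1881 (10 nM)-driven beta-lactamase expression in GripTite HEK 293 cells is measured after 16 h; values are Hill-derived IC50s normalized between R1881 and DMSO wells.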
For orientation: Quantitative high-throughput screening tests each substance at several concentrations.

Assay [2] is described as follows: qHTS assay for small molecule antagonists of peroxisome proliferator-activated receptor delta signaling (AID 588535).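 Also: cells co-treated with a PPAR-delta agonist as stimulator during compound exposure.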 The note with it: HEK293T PPARd-UAS-bla, beta-lactamase FRET ratio, 18 h; 460 nm channel. The method in brief:
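Compounds tested in titration on PPAR-delta-UAS-bla HEK293T cells grown in charcoal/dextran-stripped serum (2%); beta-lactamase activity read via CCF4 emission at 460 and 530 nm.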

Assay [3] is described as follows: qHTS assay for small molecule agonists of retinoid X receptor alpha signaling (AID 588544). The following applies: HEK293T RXRa-UAS-bla, beta-lactamase reporter, 18 h; 530 nm emission.
The nature of assay [4]: qHTS assay for small molecule antagonists of peroxisome proliferator-activated receptor gamma signaling (AID 588537). The note with it: HEK293 PPARg-UAS-bla, beta-lactamase ratio, antagonist mode; measured here: W460 blue channel. The method in brief: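 HEK293 cells, PPAR-gamma-UAS-bla, 3000/well. Pre-incubation 6-6.5 h, 37 C. Compound titration with rosiglitazone 50 nM final, 16 h. CCF4 dye, 2 h RT, dual-emission fluorescence.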

Assay [5] is described as follows: qHTS assay for small molecule antagonists of vitamin D receptor signaling (AID 588541). The following applies: HEK293T VDR-UAS-bla, beta-lactamase ratio, antagonist mode; measured here: W460 blue channel (cell viability).
Assay [6] in a line: qHTS assay for small molecule antagonists of retinoid X receptor alpha signaling (AID 588546).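 Also: cells stimulated with 9-cis-retinoic acid as agonist; % is scaled to controls: 0 for no effect and ±100 for the full control effect.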 The following applies: HEK293T RXRa-UAS-bla, beta-lactamase ratio, antagonist mode; measured here: W530 green channel, cytotoxicity proxy. The gist of the method:
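Beta-lactamase reporter inhibition, read as CCF4 fluorescence ratio (ex 405, em 460/530 nm) after 2 h at RT. HEK293T UAS-bla cells, 2500/well, were stimulated with 9-cis-RA at 500 or 100 nM final alongside test compound for 18 h at 37 C.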

Assay [7] in a line: Nrf2 qHTS screen for inhibitors: Validation (AID 493153). The following applies: A549 ARE-Fluc reporter, 18-24 h; AC50: CellTiter-Fluor fluorescence read, measured here: cytotoxicity CellTiter-Fluor AC50; viability change: measured here: cytotoxicity max response. The gist of the method:
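In this counterscreened reporter format, each well gives two signals: CellTiter-Fluor fluorescence for cytotoxicity and ARE-luciferase luminescence for Nrf2 function. A549 ARE_Fluc cells in 5% FBS OPTI-MEM were exposed to compound titrations for 18-24 h.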

The mark [8] stands for this setting: measured here: W460 blue channel fit.
Where [9] appears, read: measured here: W530 green channel, cytotoxicity/artifact.

Structures are written as SMILES. Some of the results follow. The main result of the screen is listed elsewhere. These columns were measured beside it and carry no call. Compounds called inactive in the main read-out are mostly missing here. For part of these data: The note in brackets gives the kind of curve behind each potency; many fits are weak.

As a reminder, the AC50 is the concentration at which the activity in the assay is half-maximal. In the case of `O=C1NC(=O)C(Cc2ccc(OCCN3COc4ccccc4C3=O)cc2)S1` (stereo not drawn), the AC50 in assay [1] (setting [8]) was 12.6 µM [rising, full curve, poor fit]; in assay [1] (setting [9]) it was 11.2 µM [rising, full curve, poor fit]. In addition, the max response in assay [2] was 285%; in assay [3], 53%.
Turning to `C[C@@H]1CC2(OC[C@]3(C)O[C@H]23)O[C@H]2C[C@@]3(C)[C@@H]4CC[C@H]5C(C)(C)C(O[C@@H]6OC[C@@H](O)[C@H](O)[C@H]6O)CC[C@@]56C[C@@]46CC[C@]3(C)[C@@H]12` (stereo partly drawn), the AC50 was 0.0316 µM [falling, full curve, poor fit] in assay [1] (setting [8]); 3.98 µM [rising, full curve, poor fit] in assay [1] (setting [9]); 50.1 µM [rising, single point] in assay [4]; 31.6 µM [rising, partial curve, poor fit] in assay [5]. In addition, the max response in assay [2] was determined as 317%; in assay [3], 53.8%; in assay [6] it was 23.4%.
For `CC(C)ON([C@@H](C(=O)NO)C(C)C)S(=O)(=O)c1ccc(-c2ccccc2)cc1`, in assay [7], the AC50 is 18.4 µM [falling, single point] and the viability change is -60.6%.
With `O=C(Oc1ccccc1)c1cccc(C(=O)Oc2ccccc2)c1`, the AC50 in assay [1] (setting [9]) was 31.6 µM [rising, partial curve].
Take `Cc1cc2nc(N)sc2cc1C`: the AC50 in assay [1] (setting [8]) was 50.1 µM [rising, single point].
For the compound `CCN(CC)c1cccc(O)c1`, in assay [1] (setting [8]), the AC50 is 22.4 µM [rising, single point].
As for `Cc1c(C(=O)O)cccc1[N+](=O)[O-]`, the AC50 in assay [1] (setting [8]) was 4.47 µM [falling, partial curve, poor fit].
With `CCCCCCCCc1ccc(-c2ccc(C(=O)O)cc2)cc1`, the viability change in assay [7] was -5.17%.

Values taken from PubChem BioAssay (NCATS).
